PubChem BioAssay AID1508588, Peter MacCallum Cancer Centre – 2020
This is an unselected part of about 18,000 deposited reagents. 790 of them (4.4%) were called active. 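Calls rest on a combination of fold-change classes in drug and vehicle arms, not all shown here.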 Entries without a mark were called inactive.

Purpose: 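Genome-wide search for knock-downs that heighten vemurafenib action in melanoma cells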 (primary screen)
System: human WM266.4 melanoma cells (BRAF V600 mutant)
Reagents: siRNA pool against human genes, 40 nM
Time to read-out: 96 h from transfection to read-out
Conditions: vemurafenib 300 nM (about IC25), added 48 h after transfection, for 48 h; comparison arm got DMSO vehicle only
Measurement: 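Ratios to non-targeting siRNA for cell gain, counted as DAPI nuclei after minus before drug and averaged over two replicates, and for absorbance-read medium lactate per cell; both binned into fold-change classes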
Scale: cell gain with vemurafenib: higher = more cell gain than with non-targeting siRNA; lactate per cell with vemurafenib: higher = more lactate made per cell
Rule for the call: 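Enhancement is called by pairing each knock-down's vehicle-arm and drug-arm fold-change classes for viability or glycolysis; which class combinations qualify is not given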
Meaning of the calls: active = enhances vemurafenib effect; inactive = no enhancement seen

no.	Target gene	cell gain with vemurafenib	lactate per cell with vemurafenib
1	FBXO47	0.85	1.04
2	PPFIA4	0.87	0.53
3	SRPRA	0.25	1.29
4	RAD51B	0.63	0.86
5	RIN1	0.28	1.2
6	ATG13	0.28	2.58
7	MYO1G	0.36	1.39
8	DNAJB14	0.85	0.84
9	FANCD2	0.57	1.43
10	HIKESHI	0.46	1.58
11	ABCD1	0.58	0.78
12	COQ7	0.68	1.43
13	FAM120A	0.18	1.65
14	BCAT2	0.84	0.37
15	MYL5	-0.04	0.6
16	PRSS50	0.49	1.61
17	SRRM3	1.04	1.36
18	TRMT6	0.56	1.71
19	DOHH	0.45	1.29
20	ZNF653	0.78	1.21
21	PCNT	0.07	2.02
22	F3	0.63	1.51
23	ZC3H11A	0.39	1.24
24	LONRF3	0.47	1.05
25	LINC00477	0.13	0.2
26	RNF138	0.43	1.64
27	RBAK	0.74	1.17
28	PCDHB5	0.87	0.32
29	GPX3	0.38	1.36
30	INHBA	0.79	0.86
31	SLC25A20	0.94	0.52
32	MACROD2	0.67	0.82
33	DNAAF11	1.35	0.54
34	PRR19	0.34	0.66
35	GDPD1	0.9	0.72
36	SEPTIN9	0.78	1.21
37	MGST2	0.42	0.72
38	TMPRSS6	0.53	1.26
39	SV2A	0.92 (active)	0.48
40	GDF3	0.36	1.36
41	KIR2DL5A	0.26	1.86
42	AHR	0.43	0.97
43	OVGP1	0.63	0.7
44	PPP1R13B	0.78	0.58
45	CFB	0.96	0.52
46	LHX2	0.89	1.19
47	KIF5C	0.8	0.8
48	NKG7	0.7	0.88
49	MRPS12	0.88	1.24
50	PCDH15	0.35	0.98
51	ZNF431	0.45	1.06
52	STX8	-0.01	2.94
53	CACNG5	0.52	1.13
54	HACD2	0.58	1.34
55	HOXB13	0.1	0.84
56	CCL20	0.95	0.6
57	NUCKS1	0.61	0.52
58	ZNF326	0.6	0.86
59	AWAT2	0.12	1.25
60	RAMP1	0.22 (active)	0.43
61	TSSK4	0.67	0.64
62	CCDC28B	0.63	1.02
63	CNFN	0.39	1.38
64	FAAH2	0.65	1.36
65	P2RY13	0.68 (active)	0.28
66	STARD4	0.14	1.84
67	LRIG2	0.56	0.6
68	RMP64	0.14	0.83
69	MLPH	0.71	0.44
70	WDR89	0.74	0.99
71	CYP2C19	0.6	0.81
72	ROMO1	0.82	1.21
73	EDEM3	0.68	0.5
74	H4C7	0.62	0.9
75	KPNA1	0.75	0.96
76	KCTD17	0.13	1.35
77	XKR6	0.51	0.98
78	STAC3	0.93 (active)	0.44
79	HSPA12A	0.54	0.72
80	NECAP2	0.27	0.88
81	NUDT17	0.82	0.73
82	RPS6KB1	0.28	1.54
83	CCDC32	0.35	0.81
84	C8orf76	0.43	1.08

A run of entries taken from the entries so far, as a working copy:
no.	Target gene	cell gain with vemurafenib	lactate per cell with vemurafenib
78	STAC3	0.93 (active)	0.44
79	HSPA12A	0.54	0.72
80	NECAP2	0.27	0.88
81	NUDT17	0.82	0.73
82	RPS6KB1	0.28	1.54
83	CCDC32	0.35	0.81
